Patent publication US9422280B2, “N-substituted hetero-bicyclic compounds and derivatives for combating animal pests II” (BASF SE, priority 2012, dated 2016)
Some results were stated once for a whole list of compounds, not compound by compound.

Experiments:
Assay type in all cases: in vivo
[1] = test system: Green Peach Aphid (Myzus persicae); assay: Green peach aphid foliar spray test on bell pepper; conditions: 300 ppm, sprayed bell pepper plants, aphid mortality after 5 days
Text: B.1 Green Peach Aphid (Myzus persicae)
(§1) The active compounds were formulated in cyclohexanone as a 10,000 ppm solution supplied in tubes. The tubes were inserted into an automated electrostatic sprayer equipped with an atomizing nozzle and they served as stock solutions for which lower dilutions were made in 50% acetone:50% water (v/v). A nonionic surfactant (Kinetic®) was included in the solution at a volume of 0.01% (v/v).
Bell pepper plants at the first true-leaf stage were infested prior to treatment by placing heavily infested leaves from the main colony on top of the treatment plants. Aphids were allowed to transfer overnight to accomplish an infestation of 30-50 aphids per plant and the host leaves were removed. The infested plants were then sprayed by an automated electrostatic plant sprayer equipped with an atomizing spray nozzle. The plants were dried in the sprayer fume hood, removed, and then maintained in a growth room under fluorescent lighting in a 24-hr photoperiod at about 25° C. and about 20-40% relative humidity. Aphid mortality on the treated plants, relative to mortality on untreated control plants, was determined after 5 days.

[2] = test system: Cotton Aphid (Aphis gossypii); assay: Cotton aphid cotyledon dip test; conditions: 300 ppm, cotton cotyledons dipped, mortality counts after 5 days
Text: B.2 Cotton Aphid (Aphis gossypii)
The active compounds were formulated in 50:50 (vol:vol) acetone:water and 100 ppm Kinetica™ surfactant.
Cotton plants at the cotyledon stage (one plant per pot) were infested by placing a heavily infested leaf from the main colony on top of each cotyledon. The aphids were allowed to transfer to the host plant overnight, and the leaf used to transfer the aphids was removed. The cotyledons were dipped in the test solution and allowed to dry. After 5 days, mortality counts were made.

[3] = test system: Cowpea Aphid (Aphis craccivora); assay: Cowpea aphid spray test on potted cowpea plants; conditions: 500 ppm, sprayed cowpea plants, population reduction assessed after 24, 72 and 120 hours
Protocol: B.3 Cowpea Aphid (Aphis craccivora)
The active compound is dissolved at the desired concentration in a mixture of 1:1 (vol:vol) distilled water:acetone. The test solution is prepared at the day of use.
Potted cowpea plants colonized with approximately 100-150 aphids of various stages were sprayed after the pest population has been recorded. Population reduction was assessed after 24, 72, and 120 hours.

[4] = test system: Vetch Aphid (Megoura viciae); assay: Vetch aphid broad bean leaf disk microtiter test; conditions: 800 ppm, sprayed broad bean leaf disks, 5 days
Protocol: B.4 Vetch Aphid (Megoura viciae)
For evaluating control of vetch aphid (Megoura viciae) through contact or systemic means the test unit consisted of 24-well-microtiter plates containing broad bean leaf disks.
The compounds were formulated using a solution containing 75% v/v water and 25% v/v DMSO. Different concentrations of formulated compounds were sprayed onto the leaf disks at 2.5 μl, using a custom built micro atomizer, at two replications.
After application, the leaf disks were air-dried and 5-8 adult aphids placed on the leaf disks inside the microtiter plate wells. The aphids were then allowed to suck on the treated leaf disks and incubated at about 23±1° C. and about 50±5% relative humidity for 5 days. Aphid mortality and fecundity was then visually assessed.

[5] = test system: Silverleaf Whitefly (bemisia argentifolii); assay: Silverleaf whitefly spray test on cotton plants; conditions: 500 ppm, sprayed cotton plants, whitefly adults, 3 days after treatment
Text: B.5 Silverleaf Whitefly (bemisia argentifolii)
as §1
Cotton plants at the cotyledon stage (one plant per pot) were sprayed by an automated electrostatic plant sprayer equipped with an atomizing spray nozzle. The plants were dried in the sprayer fume hood and then removed from the sprayer. Each pot was placed into a plastic cup and about 10 to 12 whitefly adults (approximately 3-5 days old) were introduced. The insects were collected using an aspirator and a nontoxic Tygon® tubing connected to a barrier pipette tip. The tip, containing the collected insects, was then gently inserted into the soil containing the treated plant, allowing insects to crawl out of the tip to reach the foliage for feeding. Cups were covered with a reusable screened lid. Test plants were maintained in a growth room at about 25° C. and about 20-40% relative humidity for 3 days, avoiding direct exposure to fluorescent light (24 hour photoperiod) to prevent trapping of heat inside the cup. Mortality was assessed 3 days after treatment, compared to untreated control plants.

[6] = test system: Orchid Thrips (dichromothrips corbetti); assay: Orchid thrips floral-immersion test; conditions: 500 ppm, dipped orchid flowers, adult thrips, 72 hours after treatment
Protocol: B.7 Orchid Thrips (dichromothrips corbetti)
Dichromothrips corbetti adults used for bioassay were obtained from a colony maintained continuously under laboratory conditions. For testing purposes, the test compound is diluted in a 1:1 mixture of acetone:water (vol:vol), plus 0.01% vol/vol Alkamuls® EL 620 surfactant.
Thrips potency of each compound was evaluated by using a floral-immersion technique. Plastic petri dishes were used as test arenas. All petals of individual, intact orchid flowers were dipped into treatment solution and allowed to dry. Treated flowers were placed into individual petri dishes along with about 20 adult thrips. The petri dishes were then covered with lids. All test arenas were held under continuous light and a temperature of about 28° C. for duration of the assay. After 3 days, the numbers of live thrips were counted on each flower, and along inner walls of each petri dish. The percentmortality was recorded 72 hours after treatment.

[7] = test system: Rice Green Leafhopper (Nephotettix virescens); assay: Rice green leafhopper spray test on rice seedlings; conditions: 500 ppm, sprayed rice seedlings, adults, after 72 hours
Protocol: B.8 Rice Green Leafhopper (Nephotettix virescens)
(§2) Rice seedlings were cleaned and washed 24 hours before spraying. The active compounds were formulated in 50:50 acetone:water (vol:vol), and 0.1% vol/vol surfactant (EL 620) was added. Potted rice seedlings were sprayed with 5 ml test solution, air dried, placed in cages and inoculated with 10 adults. Treated rice plants were kept at about 28-29° C. and relative humidity of about 50-60%. Percent mortality was recorded after 72 hours.

[8] = test system: Rice Brown Plant Hopper (Nilaparvata lugens); assay: Rice brown plant hopper spray test on rice seedlings; conditions: 500 ppm, sprayed rice seedlings, adults, after 72 hours
Protocol: B.9 Rice Brown Plant Hopper (Nilaparvata lugens)
as §2, with “(vol:vol)” for “(vol:vol),”

[9] = test system: Mediterranean Fruitfly (Ceratitis capitata); assay: Mediterranean fruitfly insect diet microtiter test; conditions: 800 ppm, sprayed onto insect diet with eggs, egg and larval mortality after 5 days
[10] = test system: Boll Weevil (Anthonomus grandis); assay: Boll weevil insect diet microtiter test; conditions: 2500 ppm, sprayed onto insect diet with eggs, egg and larval mortality after 5 days
Protocol: B.6 Boll Weevil (Anthonomus grandis)
For evaluating control of boll weevil (Anthonomus grandis) the test unit consisted of 24-well-microtiter plates containing an insect diet and 20-30 A. grandis eggs.
The compounds were formulated using a solution containing 75% v/v water and 25% v/v DMSO. Different concentrations of formulated compounds were sprayed onto the insect diet at 20 μl, using a custom built micro atomizer, at two replications.
After application, microtiter plates were incubated at about 23±1° C. and about 50±5% relative humidity for 5 days. Egg and larval mortality was then visually assessed.

## CCS(=O)(=O)c1nc2cccn(Cc3ccc(Cl)nc3)c-2n1 [E1.2]
[1]
  mortality in comparison with untreated controls: at least 75%
[2]
  mortality in comparison with untreated controls: at least 75%
[3]
  mortality in comparison with untreated controls: at least 75%
[4]
  mortality in comparison with untreated controls: at least 75%
[5]
  mortality in comparison with untreated controls: at least 75%
[6]
  mortality in comparison with untreated controls: at least 75%
[7]
  mortality in comparison with untreated controls: at least 75%
[8]
  mortality in comparison with untreated controls: at least 75%

## Fc1cc(Cn2cccc3nc(C(F)(F)F)nc2-3)cnc1Cl [E1.18]
[1]
  mortality in comparison with untreated controls: at least 75%
[2]
  mortality in comparison with untreated controls: at least 75%
[3]
  mortality in comparison with untreated controls: at least 75%
[4]
  mortality in comparison with untreated controls: at least 75%
[5]
  mortality in comparison with untreated controls: at least 75%
[6]
  mortality in comparison with untreated controls: at least 75%
[7]
  mortality in comparison with untreated controls: at least 75%
[8]
  mortality in comparison with untreated controls: at least 75%

## FC(F)(F)C(F)(F)c1nc2cccn(Cc3ccc(Cl)nc3)c-2n1 [E1.19]
[3]
  mortality in comparison with untreated controls: at least 75%
[4]
  mortality in comparison with untreated controls: at least 75%
[6]
  mortality in comparison with untreated controls: at least 75%
[7]
  mortality in comparison with untreated controls: at least 75%
[8]
  mortality in comparison with untreated controls: at least 75%
[9]
  mortality in comparison with untreated controls: over 75%

## [O-][S+](c1nc2cccn(Cc3ccc(Cl)nc3)c-2n1)C(F)F (stereo not shown) [E1.39]
[1]
  mortality in comparison with untreated controls: at least 75%
[2]
  mortality in comparison with untreated controls: at least 75%
[7]
  mortality in comparison with untreated controls: at least 75%

## Cc1cn2nc(Br)nc2n1Cc1ccc(Cl)nc1 [E2.3]
[3]
  mortality in comparison with untreated controls: at least 75%
[4]
  mortality in comparison with untreated controls: at least 75%
[10]
  mortality in comparison with untreated controls: over 75%
[6]
  mortality in comparison with untreated controls: at least 75%
[7]
  mortality in comparison with untreated controls: at least 75%
[9]
  mortality in comparison with untreated controls: over 75%

## Clc1ccc(CN2CCCn3ncnc32)cn1 [E2.6]
[4]
  mortality in comparison with untreated controls: at least 75%
[10]
  mortality in comparison with untreated controls: over 75%
[9]
  mortality in comparison with untreated controls: over 75%
